According to PMC7473863:
Read-outs that look alike come from different tables or passages of the source. These are yes or no findings as the source states them, for the method shown. In cells and extracts the contact can be indirect. Some entries that bind do so weakly or less than the wild type. For some assays here: Tags and fused reporters may be left off the sequences shown.

Amino acid sequences for entries named in this document (tags omitted). A change or cut given only in a name is not applied to a line headed by its entry. Residues count along the entry.
UniProt O55022: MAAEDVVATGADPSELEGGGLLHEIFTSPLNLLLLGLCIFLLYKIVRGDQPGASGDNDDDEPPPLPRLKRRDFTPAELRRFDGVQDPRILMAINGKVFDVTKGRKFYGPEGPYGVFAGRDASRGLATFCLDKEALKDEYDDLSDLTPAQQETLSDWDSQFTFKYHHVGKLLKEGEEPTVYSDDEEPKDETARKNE
UniProt P35951, residues 22-862: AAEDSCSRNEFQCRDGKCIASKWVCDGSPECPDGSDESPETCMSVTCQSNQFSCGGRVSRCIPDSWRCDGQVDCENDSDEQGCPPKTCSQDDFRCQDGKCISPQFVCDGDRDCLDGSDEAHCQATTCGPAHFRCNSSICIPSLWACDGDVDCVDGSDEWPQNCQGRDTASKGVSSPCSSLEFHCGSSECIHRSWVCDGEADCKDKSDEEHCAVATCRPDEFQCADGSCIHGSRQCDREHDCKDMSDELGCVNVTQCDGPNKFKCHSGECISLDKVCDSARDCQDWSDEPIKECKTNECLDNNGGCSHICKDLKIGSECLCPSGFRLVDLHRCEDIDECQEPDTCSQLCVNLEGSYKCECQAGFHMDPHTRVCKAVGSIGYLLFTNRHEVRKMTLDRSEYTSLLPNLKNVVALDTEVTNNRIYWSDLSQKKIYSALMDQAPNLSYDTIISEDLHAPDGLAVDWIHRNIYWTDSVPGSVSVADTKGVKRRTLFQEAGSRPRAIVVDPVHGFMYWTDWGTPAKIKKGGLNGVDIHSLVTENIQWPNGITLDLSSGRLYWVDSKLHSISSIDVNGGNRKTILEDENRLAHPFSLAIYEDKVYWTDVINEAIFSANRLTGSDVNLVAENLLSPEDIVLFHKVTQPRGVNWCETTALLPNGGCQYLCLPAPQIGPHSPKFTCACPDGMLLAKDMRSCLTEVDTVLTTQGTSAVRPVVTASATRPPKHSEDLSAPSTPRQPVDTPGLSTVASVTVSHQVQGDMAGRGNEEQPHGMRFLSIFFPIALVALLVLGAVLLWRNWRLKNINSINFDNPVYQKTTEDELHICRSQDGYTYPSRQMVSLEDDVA
UniProt P98156, residues 28-873: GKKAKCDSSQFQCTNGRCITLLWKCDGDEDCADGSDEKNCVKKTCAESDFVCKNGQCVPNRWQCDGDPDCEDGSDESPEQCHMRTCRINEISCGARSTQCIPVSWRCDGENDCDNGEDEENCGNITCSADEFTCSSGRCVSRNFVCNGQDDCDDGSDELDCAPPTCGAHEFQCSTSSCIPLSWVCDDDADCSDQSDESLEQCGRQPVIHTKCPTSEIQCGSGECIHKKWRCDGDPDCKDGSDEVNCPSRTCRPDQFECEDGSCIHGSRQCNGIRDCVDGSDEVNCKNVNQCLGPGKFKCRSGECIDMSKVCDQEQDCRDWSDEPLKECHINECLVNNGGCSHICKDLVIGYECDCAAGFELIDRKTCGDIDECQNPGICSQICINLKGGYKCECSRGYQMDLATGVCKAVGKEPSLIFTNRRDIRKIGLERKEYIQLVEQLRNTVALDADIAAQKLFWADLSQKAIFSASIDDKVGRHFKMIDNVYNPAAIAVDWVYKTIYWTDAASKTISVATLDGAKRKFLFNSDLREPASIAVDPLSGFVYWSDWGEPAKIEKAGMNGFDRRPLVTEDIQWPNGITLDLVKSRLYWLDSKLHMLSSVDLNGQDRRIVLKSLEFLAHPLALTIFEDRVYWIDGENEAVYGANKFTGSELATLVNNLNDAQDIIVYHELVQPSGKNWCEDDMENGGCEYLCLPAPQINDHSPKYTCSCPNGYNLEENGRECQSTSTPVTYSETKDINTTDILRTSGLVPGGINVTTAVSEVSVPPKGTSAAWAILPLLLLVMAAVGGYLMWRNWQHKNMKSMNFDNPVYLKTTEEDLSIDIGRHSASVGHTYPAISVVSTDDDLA

Legend:
[1] = molecular target: endogenous PGRMC1 of 3T3L1 cells (mouse (endogenous in 3T3L1)) (UniProt O55022); test: co-IP; 3T3L1 cell lysate incubated with 1 µg anti-PGRMC1 antibody or normal rabbit IgG for 2 h, then with protein A-sepharose beads overnight; washed three times in NP40 lysis buffer; western blotting
[2] = molecular target: FLAG-tagged PGRMC1 WT (mouse progesterone receptor membrane-associated component 1) (mouse) (UniProt O55022); test: co-IP; FLAG-PGRMC1 WT or Y113F overexpressed in 3T3L1 cells; NP40 lysis buffer (20 mmol/l Tris-HCl pH 7.5, 150 mmol/l NaCl, 1% NP40); lysate incubated with anti-FLAG (M2) agarose for 60 min at room temperature; endogenous partners detected by western blotting
[3] = molecular target: FLAG-tagged PGRMC1 Y113F mutant (mouse) (mouse) (UniProt O55022); test: as above
[4] = molecular target: endogenous PGRMC1 of 3T3L1 cells (mouse (endogenous in 3T3L1)) (UniProt O55022); test: co-IP; 3T3L1 cell lysate incubated with 1 µg anti-PGRMC1 antibody or normal rabbit IgG for 2 h, then with protein A-sepharose beads overnight; washed three times in NP40 lysis buffer; western blotting; remark: listed apart in the source
[5] = molecular target: FLAG-tagged PGRMC1 WT (mouse progesterone receptor membrane-associated component 1) (mouse) (UniProt O55022); test: co-IP; FLAG-PGRMC1 WT or Y113F overexpressed in 3T3L1 cells; NP40 lysis buffer (20 mmol/l Tris-HCl pH 7.5, 150 mmol/l NaCl, 1% NP40); lysate incubated with anti-FLAG (M2) agarose for 60 min at room temperature; endogenous partners detected by western blotting; remark: listed apart in the source
[6] = molecular target: FLAG-tagged PGRMC1 Y113F mutant (mouse) (mouse) (UniProt O55022); test: as above; remark: listed apart in the source

## low-density lipoprotein receptor (LDL-R), endogenous in 3T3L1 cells (from UniProt P35951 22-862)
[1]
  binding: binds
[2]
  binding: binds
[3]
  binding: no binding

## very-low-density lipoprotein receptor (VLDL-R), endogenous in 3T3L1 cells (from UniProt P98156 28-873)
[2]
  binding: binds
[3]
  binding: no binding

B1: glucose transporter 4 (GLUT4), endogenous in 3T3L1 cells (protein, UniProt P14142 1-509)
chain: MPSGFQQIGSDDGEPPRQRVTGTLVLAVFSAVLGSLQFGYNIGVINAPQKVIEQSYNATWLGRQGPGGPDSIPQGTLTTLWALSVAIFSVGGMISSFLIGIISQWLGRKRAMLANNVLAVLGGALMGLANAAASYEILILGRFLIGAYSGLTSGLVPMYVGEIAPTHLRGALGTLNQLAIVIGILVAQVLGLESMLGTATLWPLLLALTVLPALLQLILLPFCPESPRYLYIIRNLEGPARKSLKRLTGWADVSDALAELKDEKRKLERERPMSLLQLLGSRTHRQPLIIAVVLQLSQQLSGINAVFYYSTSIFESAGVGQPAYATIGAGVVNTVFTLVSVLLVERAGRRTLHLLGLAGMCGCAILMTVALLLLERVPAMSYVSIVAIFGFVAFFEIGPGPIPWFIVAELFSQGPRPAAMAVAGFSNWTCNFIVGMGFQYVADAMGPYVFLLFAVLLLGFFIFTFLKVPETRGRTFDQISAAFRRTPSLLEQEVKPSTELEYLGPDEND
[4]
  binding: binds
[5]
  binding: binds
[6]
  binding: no binding
